Record: PubChem BioAssay AID504804 (Drosophila RNAi Screening Center, 2011)

Purpose: 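dsRNAs that improve Kc cell survival under doxorubicin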 (primary screen)
Cells: Drosophila Kc cells
Reagents: long dsRNA against Drosophila genes, 0.5 µg dsRNA per well
Duration: 96 h (48 h knock-down, then 48 h drug)
Conditions: doxorubicin 5 µg/ml for 48 h, added 48 h after dsRNA
Read-out: 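Luminescent ATP counts per replicate, not normalised, reflecting viable cells after 48 h dsRNA knock-down followed by 48 h of 5 µg/ml doxorubicin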
Scale: raw ATP luminescence: higher = more viable cells, protection from doxorubicin
Active means: 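z-score of 2 or more over plate mean in both duplicates, retained only when retests and separate dsRNAs confirm the protection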
The deposit covers about 19,000 reagents; this is an unselected part of those that have a named target and a result. In the full data, 47 (0.25%) got an active call. 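Signals are raw, not normalised; exact z-scores behind calls not deposited; actives needed confirmation, so some wells reaching 2 SD are inactive.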 A plus sign joins genes that one reagent is predicted to hit.

fau [DRSC12816] scored raw ATP luminescence, replicate 1 = 62983; raw ATP luminescence, replicate 2 = 54183; inactive.
After knock-down of fau [DRSC12817], the screen gave raw ATP luminescence, replicate 1 = 69803; raw ATP luminescence, replicate 2 = 69563; inactive.
fau [DRSC16943] showed raw ATP luminescence, replicate 1 = 57550; raw ATP luminescence, replicate 2 = 21890; inactive.
Depletion of fau [DRSC16944] came out at: raw ATP luminescence, replicate 1 = 54143; raw ATP luminescence, replicate 2 = 49603; inactive.
After knock-down of fau [DRSC16945] the results were raw ATP luminescence, replicate 1 = 64253; raw ATP luminescence, replicate 2 = 56117; inactive.
Against CG15212 [DRSC10212] the deposit lists raw ATP luminescence, replicate 1 = 82930; raw ATP luminescence, replicate 2 = 78320; inactive.
Depletion of His2B:CG33870 + His2B:CG33868 + His2B:CG33882 + 21 more [DRSC03757] gave: raw ATP luminescence, replicate 1 = 47447; raw ATP luminescence, replicate 2 = 57433; inactive.
Depletion of CG1722 [DRSC20547] resulted in: raw ATP luminescence, replicate 1 = 3.17e5; raw ATP luminescence, replicate 2 = 3.34e5; inactive.
Knock-down of Meltrin [DRSC16274] gave: raw ATP luminescence, replicate 1 = 82203; raw ATP luminescence, replicate 2 = 57953; inactive.
With knock-down of CG42663 [DRSC06404], the record shows raw ATP luminescence, replicate 1 = 2.14e5; raw ATP luminescence, replicate 2 = 2.23e5; inactive.
With knock-down of CG7518 [DRSC16253], the record shows raw ATP luminescence, replicate 1 = 61910; raw ATP luminescence, replicate 2 = 26477; inactive.
beat-IIIa [DRSC01575] showed raw ATP luminescence, replicate 1 = 3.22e5; raw ATP luminescence, replicate 2 = 3.34e5; inactive.
For beat-IIIa [DRSC01577], the values are raw ATP luminescence, replicate 1 = 3.32e5; raw ATP luminescence, replicate 2 = 3.08e5; inactive.
Against beat-IIIa [DRSC02178], the values are raw ATP luminescence, replicate 1 = 51623; raw ATP luminescence, replicate 2 = 59993; inactive.

A few values from the list.
Under “raw ATP luminescence, replicate 1”, fau [DRSC16945] has 64253
For “raw ATP luminescence, replicate 2”, beat-IIIa [DRSC01575] has 3.34e5
